Test results: PMC12561415, “ACSS2/AATF Drives Soluble FasL‐Mediated CD8^+ T Cell Apoptosis in Pancreatic Neuroendocrine Tumors” (Advanced Science, 2025)
These are yes or no findings as the source states them, for the method shown. In cells and extracts the contact can be indirect. Some results given as binding are weak or reduced against the parent protein; the word gives no strength. Where a sequence is shown, tags or fusion partners need not be part of it.

Sequences of proteins named here, by UniProt entry; tags and fusion partners are left off.
UniProt Q9NR19: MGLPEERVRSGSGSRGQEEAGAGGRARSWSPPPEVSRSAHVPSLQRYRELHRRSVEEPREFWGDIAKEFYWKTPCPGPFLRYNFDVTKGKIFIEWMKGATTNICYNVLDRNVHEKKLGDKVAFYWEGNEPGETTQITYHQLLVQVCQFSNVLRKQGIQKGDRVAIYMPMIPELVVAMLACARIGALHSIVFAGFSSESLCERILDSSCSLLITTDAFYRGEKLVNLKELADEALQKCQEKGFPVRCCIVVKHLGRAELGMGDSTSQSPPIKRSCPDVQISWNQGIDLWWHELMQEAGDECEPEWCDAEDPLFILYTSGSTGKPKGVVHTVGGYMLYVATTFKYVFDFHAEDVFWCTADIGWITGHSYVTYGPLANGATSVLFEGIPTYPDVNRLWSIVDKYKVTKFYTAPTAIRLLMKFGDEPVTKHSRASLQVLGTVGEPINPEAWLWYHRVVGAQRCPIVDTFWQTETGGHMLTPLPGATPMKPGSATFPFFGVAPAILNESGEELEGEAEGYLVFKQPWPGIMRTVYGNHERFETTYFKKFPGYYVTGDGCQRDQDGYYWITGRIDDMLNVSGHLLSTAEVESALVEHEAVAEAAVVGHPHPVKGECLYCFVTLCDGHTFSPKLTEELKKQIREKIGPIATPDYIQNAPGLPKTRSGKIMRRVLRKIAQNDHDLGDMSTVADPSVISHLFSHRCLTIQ

Target: Flag-ACSS2 (acetyl-CoA synthetase 2) (human) (UniProt Q9NR19)
Assay: co-IP; Flag-ACSS2 stable BON-1 cells lysed; immunoprecipitated with anti-Flag Ab or rabbit IgG control Ab; immunoblot with antibodies against AATF

binding: binds
B1: Recombinant human AATF (natural protein, UniProt Q9NY61 1-560, looked up)
chain: MAGPQPLALQLEQLLNPRPSEADPEADPEEATAARVIDRFDEGEDGEGDFLVVGSIRKLASASLLDTDKRYCGKTTSRKAWNEDHWEQTLPGSSDEEISDEEGSGDEDSEGLGLEEYDEDDLGAAEEQECGDHRESKKSRSHSAKTPGFSVQSISDFEKFTKGMDDLGSSEEEEDEESGMEEGDDAEDSQGESEEDRAGDRNSEDDGVVMTFSSVKVSEEVEKGRAVKNQIALWDQLLEGRIKLQKALLTTNQLPQPDVFPLFKDKGGPEFSSALKNSHKALKALLRSLVGLQEELLFQYPDTRYLVDGTKPNAGSEEISSEDDELVEEKKQQRRRVPAKRKLEMEDYPSFMAKRFADFTVYRNRTLQKWHDKTKLASGKLGKGFGAFERSILTQIDHILMDKERLLRRTQTKRSVYRVLGKPEPAAQPVPESLPGEPEILPQAPANAHLKDLDEEIFDDDDFYHQLLRELIERKTSSLDPNDQVAMGRQWLAIQKLRSKIHKKVDRKASKGRKLRFHVLSKLLSFMAPIDHTTMNDDARTELYRSLFGQLHPPDEGHGD
notes: Recombinant human AATF, the analyte in SPR; also called Che-1
